This passage reports binding results from patent publication EP2270053A1 (U3 Pharma GmbH, dated 2011).

Chains of the proteins cited; added tags and fusions are not shown. Lines headed by an entry give the natural chain unless they say otherwise; changes in a name come on top.
UniProt P30530: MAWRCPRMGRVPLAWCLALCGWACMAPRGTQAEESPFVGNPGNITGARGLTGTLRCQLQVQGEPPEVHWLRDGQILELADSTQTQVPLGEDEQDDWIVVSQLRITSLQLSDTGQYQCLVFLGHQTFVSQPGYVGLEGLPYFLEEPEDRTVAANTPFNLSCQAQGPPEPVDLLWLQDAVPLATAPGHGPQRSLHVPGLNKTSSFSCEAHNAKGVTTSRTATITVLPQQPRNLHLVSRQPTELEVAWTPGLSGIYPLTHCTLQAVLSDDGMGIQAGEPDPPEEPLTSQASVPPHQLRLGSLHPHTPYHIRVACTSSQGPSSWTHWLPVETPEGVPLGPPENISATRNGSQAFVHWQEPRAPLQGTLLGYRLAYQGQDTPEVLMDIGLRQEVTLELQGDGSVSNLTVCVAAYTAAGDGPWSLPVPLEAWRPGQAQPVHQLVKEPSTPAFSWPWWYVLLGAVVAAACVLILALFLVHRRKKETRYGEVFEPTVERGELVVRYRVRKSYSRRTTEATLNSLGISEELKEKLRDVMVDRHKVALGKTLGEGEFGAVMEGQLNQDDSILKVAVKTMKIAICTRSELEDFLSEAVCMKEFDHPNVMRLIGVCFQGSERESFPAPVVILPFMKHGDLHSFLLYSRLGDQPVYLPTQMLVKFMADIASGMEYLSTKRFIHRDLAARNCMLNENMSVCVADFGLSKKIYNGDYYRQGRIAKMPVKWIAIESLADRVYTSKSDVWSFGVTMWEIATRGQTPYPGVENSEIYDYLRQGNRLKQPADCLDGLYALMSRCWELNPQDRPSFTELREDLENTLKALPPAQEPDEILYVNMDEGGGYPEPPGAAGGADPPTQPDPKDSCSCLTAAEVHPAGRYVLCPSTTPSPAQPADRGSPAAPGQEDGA

Assay [1] has as its target Human AXL-Fc (R&D Systems, #154-AL) (human) (UniProt P30530). As to the kind of experiment: ELISA, human AXL-Fc coated plate; reference antibody. (In general: An ELISA detects its analyte on a solid surface through an enzyme-linked reagent.)
For assay [2] the target is unchanged. Nature of the assay: ELISA, human AXL-Fc coated plate, 1 µg/ml to 0.00256 ng/ml antibody.

No constants are given. Whether binding was seen depends on the method and setting. Some entries that bind do so weakly or less than the wild type.

B1: chimeric anti-AXL antibody ch11B7-IgG1 (antibody, V domains shown)
VH: EVQLQESGPGLVKPSQSLSLTCSVTGYSITSNYWGWIRKFPGDKMEWMGYITYSGSTSYNPSLKSRISITRDTSKNQFFLQLNSVTSEDTATYYCAITTFYYWGQGVMVTVSS
VL: DIQMTQAPSSLPASLGDRVTITCRASQDIGNYLRWFQQKPGKSPRLMISGATNLAAGVPSRFSGSRSGSDYSLTISSLESEDMADYYCLQSKESPWTFGGGTKLELKR
notes: Rat 11B7 variable domains on human IgG1 / human kappa; also called chm11B7; chimeric anti-AXL mAb #11B7
In the case of B1, the binding entry in assay [1] is “binds”.

B2: h#11B7-T1 (antibody, human IgG1, kappa, V domains shown)
VH: QIQLQESGPGLVKPSQTLSLTCAVSGYSITSNYWGWIRQPPGKGLEWIGYITYSGSTSYNPSLKSRVTISVDTSKNQFSLKLSSVTAADTAVYYCAITTFYYWGQGTLVTVSS
VL: DIQMTQSPSSLSASVGDRVTITCRASQDIGNYLRWYQQKPGKAPKLLISGATNLAAGVPSRFSGTGSGTDFTFTISSLQPEDFATYYCLQSKESPWTFGGGTKVEIKR
On to B2, for which, in assay [2], the binding result was “binds”.

B3: h#11D5-T4 (antibody, human IgG1, kappa, V domains shown)
VH: QVQLQQWGAGLLKPSETLSLTCTVSGYSITSNYWGWIRQPPGKGLEWIGHITNSGNTTYNPSLKSRVTISRDTSKNQFSLKLSSVTAADTAVYYCAKGAFDYWGQGTLVTVSS
VL: DIQMTQSPSSLSASVGDRVTITCRASQDIGNYLSWYQQKPGKAPKRLIYGAIKLAVGVPSRFSGSGSGTEFTLTISSLQPEDFATYYCLQYIQFPLTFGGGTKVEIKR
For the molecule B3, the binding result in assay [2] is on record as “binds”.

B4: chimeric anti-AXL antibody ch11D5-IgG1 (antibody, V domains shown)
VH: EVQLQESGPGLVKPSQSLSLTCSVTGYSITSNYWGWIRKFPGNKMEWIGHITNSGNTTYNPSLKSRISISRDTSRNQFFLQLNSVTTEDTATYYCAKGAFDYWGQGVMVTVSS
VL: DIQMTQSPSSMSTSLGDRVTITCRASQDIGNYLSWFQQKVGKSPRRMIYGAIKLAVGVPSRFSGSRSGSDYSLTISSLESEDMAIYYCLQYIQFPLTFGSGTKLELKR
notes: also called chm11D5; human chimeric antibody (of #11D5)
As to B4, the binding entry in assay [1] was “binds”.
